# According to the supplement of paper PMC10849652:
# Sequences of proteins named here, by UniProt entry; tags and fusion partners are left off. A change or cut given only in a name is not applied to a line headed by its entry.
# UniProt O60884: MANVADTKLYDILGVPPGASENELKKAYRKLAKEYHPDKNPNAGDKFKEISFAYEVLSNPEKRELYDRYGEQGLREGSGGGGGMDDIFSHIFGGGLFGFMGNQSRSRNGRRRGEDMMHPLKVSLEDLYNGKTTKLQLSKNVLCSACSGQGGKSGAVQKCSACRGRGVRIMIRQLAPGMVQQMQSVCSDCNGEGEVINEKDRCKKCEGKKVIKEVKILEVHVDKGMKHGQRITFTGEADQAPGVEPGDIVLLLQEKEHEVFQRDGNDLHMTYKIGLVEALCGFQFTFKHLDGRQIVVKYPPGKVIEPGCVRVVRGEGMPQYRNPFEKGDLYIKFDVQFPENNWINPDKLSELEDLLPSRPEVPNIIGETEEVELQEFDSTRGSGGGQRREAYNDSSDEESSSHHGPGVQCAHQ
# UniProt Q9BU89: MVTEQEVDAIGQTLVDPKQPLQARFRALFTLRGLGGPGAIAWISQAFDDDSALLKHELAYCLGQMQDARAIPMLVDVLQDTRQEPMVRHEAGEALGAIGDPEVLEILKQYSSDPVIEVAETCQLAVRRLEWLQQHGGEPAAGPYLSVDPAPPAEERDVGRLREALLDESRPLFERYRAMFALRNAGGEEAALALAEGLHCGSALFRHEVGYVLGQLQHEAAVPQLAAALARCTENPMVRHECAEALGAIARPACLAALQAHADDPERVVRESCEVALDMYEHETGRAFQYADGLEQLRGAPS
# UniProt O75911: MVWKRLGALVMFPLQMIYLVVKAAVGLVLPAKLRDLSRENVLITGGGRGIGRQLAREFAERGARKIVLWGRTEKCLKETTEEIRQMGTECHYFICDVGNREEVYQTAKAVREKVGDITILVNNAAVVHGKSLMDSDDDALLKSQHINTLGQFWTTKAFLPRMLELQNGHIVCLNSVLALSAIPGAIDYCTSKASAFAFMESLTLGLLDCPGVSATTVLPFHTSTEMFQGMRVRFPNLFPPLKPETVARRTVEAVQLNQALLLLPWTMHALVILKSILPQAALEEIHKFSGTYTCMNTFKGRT
# UniProt Q6IAN0: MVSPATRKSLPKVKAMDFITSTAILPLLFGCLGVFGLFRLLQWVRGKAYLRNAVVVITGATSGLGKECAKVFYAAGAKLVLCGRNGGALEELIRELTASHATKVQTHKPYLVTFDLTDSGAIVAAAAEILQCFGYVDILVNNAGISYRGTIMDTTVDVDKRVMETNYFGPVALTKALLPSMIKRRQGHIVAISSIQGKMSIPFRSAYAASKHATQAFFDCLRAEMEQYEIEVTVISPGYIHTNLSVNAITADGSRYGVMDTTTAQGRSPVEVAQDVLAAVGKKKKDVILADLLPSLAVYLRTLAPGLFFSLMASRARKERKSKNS
# UniProt O75907: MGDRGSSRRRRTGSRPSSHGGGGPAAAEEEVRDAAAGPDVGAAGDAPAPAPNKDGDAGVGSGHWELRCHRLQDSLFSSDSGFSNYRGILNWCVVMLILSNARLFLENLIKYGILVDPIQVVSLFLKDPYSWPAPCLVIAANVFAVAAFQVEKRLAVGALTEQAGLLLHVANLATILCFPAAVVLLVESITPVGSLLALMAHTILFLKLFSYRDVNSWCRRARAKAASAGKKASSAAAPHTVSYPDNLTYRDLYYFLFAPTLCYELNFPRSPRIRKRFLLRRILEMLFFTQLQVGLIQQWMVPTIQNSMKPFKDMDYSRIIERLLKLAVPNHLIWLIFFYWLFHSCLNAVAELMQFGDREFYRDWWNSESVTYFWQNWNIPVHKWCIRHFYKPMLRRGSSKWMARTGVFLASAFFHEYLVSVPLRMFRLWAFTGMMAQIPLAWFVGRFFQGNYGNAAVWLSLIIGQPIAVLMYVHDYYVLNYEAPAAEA
# UniProt Q8IVF4: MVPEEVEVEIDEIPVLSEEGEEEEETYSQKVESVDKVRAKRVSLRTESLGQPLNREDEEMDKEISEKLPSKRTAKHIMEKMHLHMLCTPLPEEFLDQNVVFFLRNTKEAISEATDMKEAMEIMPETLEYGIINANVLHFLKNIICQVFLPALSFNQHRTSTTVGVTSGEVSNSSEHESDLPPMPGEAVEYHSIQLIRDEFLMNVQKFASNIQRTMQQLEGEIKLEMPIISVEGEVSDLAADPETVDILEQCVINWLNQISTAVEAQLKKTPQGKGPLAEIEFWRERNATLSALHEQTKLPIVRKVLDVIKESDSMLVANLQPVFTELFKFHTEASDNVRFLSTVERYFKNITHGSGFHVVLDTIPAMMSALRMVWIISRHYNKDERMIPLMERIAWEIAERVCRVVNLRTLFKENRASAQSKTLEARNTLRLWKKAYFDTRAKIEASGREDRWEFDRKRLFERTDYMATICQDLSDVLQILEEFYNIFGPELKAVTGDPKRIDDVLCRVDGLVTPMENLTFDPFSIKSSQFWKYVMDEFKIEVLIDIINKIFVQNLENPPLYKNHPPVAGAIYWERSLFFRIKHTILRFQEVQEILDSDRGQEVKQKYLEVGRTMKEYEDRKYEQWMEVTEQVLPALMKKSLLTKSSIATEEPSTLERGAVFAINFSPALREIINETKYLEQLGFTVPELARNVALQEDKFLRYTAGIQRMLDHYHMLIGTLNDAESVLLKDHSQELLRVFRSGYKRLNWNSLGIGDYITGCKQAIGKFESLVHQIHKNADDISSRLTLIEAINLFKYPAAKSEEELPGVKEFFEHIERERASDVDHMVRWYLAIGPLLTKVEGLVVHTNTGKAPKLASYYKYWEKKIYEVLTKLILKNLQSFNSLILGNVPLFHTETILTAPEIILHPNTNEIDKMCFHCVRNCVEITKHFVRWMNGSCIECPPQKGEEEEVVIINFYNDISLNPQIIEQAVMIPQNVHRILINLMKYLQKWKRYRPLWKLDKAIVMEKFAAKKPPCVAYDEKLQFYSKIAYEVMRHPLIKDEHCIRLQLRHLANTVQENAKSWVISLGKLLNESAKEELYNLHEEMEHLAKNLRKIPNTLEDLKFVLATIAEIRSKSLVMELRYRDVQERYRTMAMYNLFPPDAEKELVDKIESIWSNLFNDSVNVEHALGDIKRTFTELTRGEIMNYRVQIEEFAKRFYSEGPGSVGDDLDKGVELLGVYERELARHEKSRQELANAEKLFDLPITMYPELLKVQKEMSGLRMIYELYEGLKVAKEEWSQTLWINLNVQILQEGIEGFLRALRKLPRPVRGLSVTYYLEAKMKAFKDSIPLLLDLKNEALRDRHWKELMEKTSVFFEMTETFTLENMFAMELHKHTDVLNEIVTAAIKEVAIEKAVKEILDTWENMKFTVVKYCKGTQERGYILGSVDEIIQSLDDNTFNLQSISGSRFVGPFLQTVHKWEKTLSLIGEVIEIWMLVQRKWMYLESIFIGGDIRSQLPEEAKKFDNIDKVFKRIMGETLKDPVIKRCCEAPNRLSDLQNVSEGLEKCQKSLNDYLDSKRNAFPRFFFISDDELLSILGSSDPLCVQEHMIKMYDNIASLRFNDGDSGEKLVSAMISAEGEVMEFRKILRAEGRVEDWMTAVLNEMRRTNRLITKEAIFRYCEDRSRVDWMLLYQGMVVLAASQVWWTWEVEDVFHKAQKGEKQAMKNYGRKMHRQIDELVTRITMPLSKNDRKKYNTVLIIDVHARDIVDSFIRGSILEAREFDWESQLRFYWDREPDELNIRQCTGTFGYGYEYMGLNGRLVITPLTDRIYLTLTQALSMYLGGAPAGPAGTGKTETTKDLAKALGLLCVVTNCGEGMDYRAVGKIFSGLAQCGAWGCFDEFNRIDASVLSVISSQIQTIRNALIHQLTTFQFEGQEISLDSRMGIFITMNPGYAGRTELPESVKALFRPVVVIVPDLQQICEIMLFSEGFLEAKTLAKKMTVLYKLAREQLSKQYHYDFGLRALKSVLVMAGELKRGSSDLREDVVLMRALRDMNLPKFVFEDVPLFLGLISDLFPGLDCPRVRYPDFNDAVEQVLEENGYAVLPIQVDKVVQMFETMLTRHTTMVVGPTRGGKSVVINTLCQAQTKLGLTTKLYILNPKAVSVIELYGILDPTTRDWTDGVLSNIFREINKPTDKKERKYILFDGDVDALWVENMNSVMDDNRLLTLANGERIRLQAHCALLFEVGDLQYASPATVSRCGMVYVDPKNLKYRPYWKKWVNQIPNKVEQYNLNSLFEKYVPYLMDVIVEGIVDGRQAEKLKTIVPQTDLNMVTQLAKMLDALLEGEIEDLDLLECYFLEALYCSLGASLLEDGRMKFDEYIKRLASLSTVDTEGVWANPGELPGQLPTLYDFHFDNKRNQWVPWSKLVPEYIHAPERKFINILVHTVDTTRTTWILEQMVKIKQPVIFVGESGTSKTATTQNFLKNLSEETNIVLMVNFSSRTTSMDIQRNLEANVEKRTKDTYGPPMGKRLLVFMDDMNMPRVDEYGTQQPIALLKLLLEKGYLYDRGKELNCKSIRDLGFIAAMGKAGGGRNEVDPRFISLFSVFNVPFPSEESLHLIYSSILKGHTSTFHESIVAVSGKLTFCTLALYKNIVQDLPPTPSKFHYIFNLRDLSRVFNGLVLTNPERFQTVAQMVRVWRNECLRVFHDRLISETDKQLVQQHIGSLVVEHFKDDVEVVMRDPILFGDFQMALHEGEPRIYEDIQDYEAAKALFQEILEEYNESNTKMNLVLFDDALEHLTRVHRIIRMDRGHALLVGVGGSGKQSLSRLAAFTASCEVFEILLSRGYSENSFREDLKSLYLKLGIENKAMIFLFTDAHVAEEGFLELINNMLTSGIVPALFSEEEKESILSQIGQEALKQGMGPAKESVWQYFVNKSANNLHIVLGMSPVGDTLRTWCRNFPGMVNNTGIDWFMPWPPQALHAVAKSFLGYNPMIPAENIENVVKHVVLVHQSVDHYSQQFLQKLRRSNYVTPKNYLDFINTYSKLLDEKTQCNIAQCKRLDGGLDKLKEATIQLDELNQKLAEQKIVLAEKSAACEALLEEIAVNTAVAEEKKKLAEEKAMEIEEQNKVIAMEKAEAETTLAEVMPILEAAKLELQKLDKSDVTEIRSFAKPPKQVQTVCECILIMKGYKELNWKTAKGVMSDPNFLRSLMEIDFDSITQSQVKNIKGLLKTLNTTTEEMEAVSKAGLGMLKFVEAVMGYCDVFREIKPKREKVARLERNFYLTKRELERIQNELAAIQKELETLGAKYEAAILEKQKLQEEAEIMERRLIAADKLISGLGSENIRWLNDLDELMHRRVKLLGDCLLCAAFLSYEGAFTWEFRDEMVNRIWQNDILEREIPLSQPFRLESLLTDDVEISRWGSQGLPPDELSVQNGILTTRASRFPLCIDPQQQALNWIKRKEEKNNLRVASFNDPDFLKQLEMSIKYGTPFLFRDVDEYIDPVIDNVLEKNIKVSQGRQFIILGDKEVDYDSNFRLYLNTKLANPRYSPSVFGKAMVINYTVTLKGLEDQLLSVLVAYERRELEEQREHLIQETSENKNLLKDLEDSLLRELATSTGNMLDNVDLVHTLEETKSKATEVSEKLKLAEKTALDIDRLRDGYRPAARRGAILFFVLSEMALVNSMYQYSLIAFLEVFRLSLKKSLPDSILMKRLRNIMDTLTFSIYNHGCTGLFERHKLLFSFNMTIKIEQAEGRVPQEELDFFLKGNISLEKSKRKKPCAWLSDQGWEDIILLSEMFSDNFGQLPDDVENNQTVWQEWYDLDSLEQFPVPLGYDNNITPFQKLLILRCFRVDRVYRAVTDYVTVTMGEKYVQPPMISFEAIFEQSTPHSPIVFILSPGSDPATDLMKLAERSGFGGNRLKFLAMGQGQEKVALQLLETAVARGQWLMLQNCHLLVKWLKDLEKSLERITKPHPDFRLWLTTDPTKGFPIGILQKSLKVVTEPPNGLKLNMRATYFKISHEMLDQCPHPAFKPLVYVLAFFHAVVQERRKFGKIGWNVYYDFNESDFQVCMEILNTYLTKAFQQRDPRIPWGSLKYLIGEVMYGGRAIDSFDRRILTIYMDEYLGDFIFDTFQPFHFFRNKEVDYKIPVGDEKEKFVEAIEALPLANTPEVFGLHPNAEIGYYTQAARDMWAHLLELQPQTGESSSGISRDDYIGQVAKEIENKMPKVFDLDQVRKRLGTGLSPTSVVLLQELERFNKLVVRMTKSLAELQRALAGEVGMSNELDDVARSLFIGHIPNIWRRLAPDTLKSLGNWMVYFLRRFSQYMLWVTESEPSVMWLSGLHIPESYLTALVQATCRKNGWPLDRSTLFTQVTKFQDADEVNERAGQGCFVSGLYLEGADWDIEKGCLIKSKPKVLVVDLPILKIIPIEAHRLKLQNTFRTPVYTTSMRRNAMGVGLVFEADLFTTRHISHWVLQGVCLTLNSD
# UniProt Q13268: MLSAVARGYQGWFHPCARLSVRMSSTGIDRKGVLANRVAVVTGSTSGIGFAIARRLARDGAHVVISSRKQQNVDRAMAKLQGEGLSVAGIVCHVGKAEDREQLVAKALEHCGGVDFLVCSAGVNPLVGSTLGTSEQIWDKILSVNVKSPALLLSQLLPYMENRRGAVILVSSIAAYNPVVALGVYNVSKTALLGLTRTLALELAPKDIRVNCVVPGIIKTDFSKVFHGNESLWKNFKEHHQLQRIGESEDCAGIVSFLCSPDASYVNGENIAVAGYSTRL
# Some of the results follow.
# Assays:
# Assay in all cases: log2 fold change, soluble protein after heating vs DMSO (PISA); higher = thermal stabilisation; K562 lysate, 10 uM; active = over 0.2 and 3.5 SD of the protein, either way, in both replicates (recomputed)
# lapatinib = compound: CS(=O)(=O)CCNCc1ccc(-c2ccc3ncnc(Nc4ccc(OCc5cccc(F)c5)c(Cl)c4)c3c2)o1 [lapatinib]
# Outline: (§1)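 Soluble protein was defined as the supernatant remaining after 21,000xg for 90 min, following pooling of heated aliquots and adjustment to 0.5% NP-40 at 4°C. Before that, crude K562 extract at 1 mg/mL protein in PBS pH 7.4 with 1 mM MgCl2 was treated with 10 μM compound for 30 min and heated for 3 min across 48°C-58°C. Quantification used TMTpro 16plex LC-MS/MS with channel sums equalised, and values are log-two fold changes in thermal stability relative to solvent controls from duplicates.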
# pictilisib = compound: CS(=O)(=O)N1CCN(Cc2cc3nc(-c4cccc5[nH]ncc45)nc(N4CCOCC4)c3s2)CC1 [pictilisib]
# Outline: as §1
# crizotinib = compound: C[C@@H](Oc1cc(-c2cnn(C3CCNCC3)c2)cnc1N)c1c(Cl)ccc(F)c1Cl [crizotinib]
# Outline: as §1
# [1] = compound: C[C@H](C1=CC=C(C=C1)C(=O)NC2=C3C=CNC3=NC=C2)N
# Outline: as §1
# duvelisib = compound: C[C@H](Nc1ncnc2nc[nH]c12)c1cc2cccc(Cl)c2c(=O)n1-c1ccccc1 [duvelisib]
# Outline: as §1
# gandotinib = compound: Cc1cc(Nc2cc(CN3CCOCC3)c3nc(C)c(Cc4ccc(Cl)cc4F)n3n2)n[nH]1 [gandotinib]
# Outline: as §1
# tozasertib = compound: Cc1cc(Nc2cc(N3CCN(C)CC3)nc(Sc3ccc(NC(=O)C4CC4)cc3)n2)n[nH]1 [tozasertib]
# Outline: as §1
# doramapimod = compound: Cc1ccc(-n2nc(C(C)(C)C)cc2NC(=O)Nc2ccc(OCCN3CCOCC3)c3ccccc23)cc1 [doramapimod]
# Outline: as §1
# bafetinib = compound: Cc1ccc(NC(=O)c2ccc(CN3CC[C@H](N(C)C)C3)c(C(F)(F)F)c2)cc1Nc1nccc(-c2cncnc2)n1 [bafetinib]
# Outline: as §1
# [2] = compound: Cc1cccc(CC(=O)N2CCc3c2ccc(-c2cn(C)c4ncnc(N)c24)c3F)n1
# Outline: as §1
# nilotinib = compound: Cc1cn(-c2cc(NC(=O)c3ccc(C)c(Nc4nccc(-c5cccnc5)n4)c3)cc(C(F)(F)F)c2)cn1 [nilotinib]
# Outline: as §1
# [3] = compound: Cc1nc(Nc2n[nH]c3c2CN(C(=O)N[C@H](CN(C)C)c2ccccc2)C3(C)C)c2sccc2n1
# Outline: as §1
# dasatinib = compound: Cc1nc(Nc2ncc(C(=O)Nc3c(C)cccc3Cl)s2)cc(N2CCN(CCO)CC2)n1 [dasatinib]
# Outline: as §1
# [4] = compound: Cc1ncc(-c2ccnc(Nc3ccc(S(C)(=O)=O)cc3)n2)n1C(C)C
# Outline: as §1
# [5] = compound: Cn1cc(-c2ccc3c(c2)CCN3C(=O)Cc2cccc(C(F)(F)F)c2)c2c(N)ncnc21
# Outline: as §1
# quisinostat = compound: Cn1cc(CNCC2CCN(c3ncc(C(=O)NO)cn3)CC2)c2ccccc21 [quisinostat]
# Outline: as §1
# tipifarnib = compound: Cn1cncc1[C@@](N)(c1ccc(Cl)cc1)c1ccc2c(c1)c(-c1cccc(Cl)c1)cc(=O)n2C [tipifarnib]
# Outline: as §1
# [6] = compound: NC(=O)Nc1cc(-c2cccc(F)c2)sc1C(=O)N[C@H]1CCCNC1
# Outline: as §1
# [7] = compound: NC(=O)c1cnc(N[C@@H]2CCCC[C@@H]2N)nc1Nc1cccc(-n2nccn2)c1
# Outline: as §1
# [8] = compound: NC1(c2ccc(-c3nc4ccn5c(=O)[nH]nc5c4cc3-c3ccccc3)cc2)CCC1
# Outline: as §1
Target,log2 fold change (lapatinib),log2 fold change (pictilisib),log2 fold change (crizotinib),log2 fold change [1],log2 fold change (duvelisib),log2 fold change (gandotinib),log2 fold change (tozasertib),log2 fold change (doramapimod),log2 fold change (bafetinib),log2 fold change [2],log2 fold change (nilotinib),log2 fold change [3],log2 fold change (dasatinib),log2 fold change [4],log2 fold change [5],log2 fold change (quisinostat),log2 fold change (tipifarnib),log2 fold change [6],log2 fold change [7],log2 fold change [8]
DHFR (UniProt P00374),inactive: -0.012,inactive: -0.069,inactive: -0.054,inactive: 0.04,inactive: -0.015,inactive: -0.099,inactive: 0.022,inactive: 0.011,inactive: -0.047,inactive: -0.077,inactive: 0.023,inactive: -0.041,inactive: -0.091,inactive: 0.019,inactive: 0.073,inactive: -0.009,inactive: -0.012,inactive: 0.039,inactive: -0.129,inactive: -0.04
DHX9 (UniProt Q08211),inactive: -0.009,inactive: 0,inactive: -0.033,inactive: 0.031,inactive: 0.023,inactive: -0.046,inactive: -0.028,inactive: 0.015,inactive: -0.023,inactive: 0.005,inactive: -0.015,inactive: 0.014,inactive: 0.008,inactive: -0.014,inactive: 0.02,inactive: -0.057,inactive: 0.01,inactive: 0.017,inactive: -0.005,inactive: -0.025
DNAJA2 (UniProt O60884),inactive: -0.027,inactive: 0.056,inactive: 0,inactive: 0.045,inactive: 0.018,inactive: -0.018,inactive: -0.009,inactive: 0.035,inactive: -0.006,inactive: 0.018,inactive: -0.002,inactive: 0.051,inactive: 0.009,inactive: 0.028,inactive: -0.007,inactive: -0.001,inactive: -0.038,inactive: -0.008,inactive: -0.027,inactive: 0.025
DNAJB4 (UniProt Q9UDY4),inactive: 0.002,inactive: 0.01,inactive: -0.075,inactive: -0.011,inactive: 0,inactive: 0.059,inactive: 0.042,inactive: 0.069,inactive: -0.044,inactive: 0.029,inactive: 0.002,inactive: -0.009,inactive: -0.019,inactive: -0.022,inactive: 0.009,inactive: -0.02,inactive: -0.008,inactive: 0.005,inactive: 0.018,inactive: 0.039
DNAJC21 isoform 3 (UniProt Q5F1R6),inactive: -0.022,inactive: -0.003,inactive: 0.014,inactive: 0.095,inactive: 0.029,inactive: -0.09,inactive: -0.046,inactive: 0.021,inactive: -0.047,inactive: -0.079,inactive: 0.027,inactive: 0.004,inactive: 0.015,inactive: -0.038,inactive: 0.03,inactive: 0.013,inactive: 0.04,inactive: 0.02,inactive: 0.003,inactive: 0.054
DOHH (UniProt Q9BU89),inactive: 0.071,inactive: 0.002,inactive: -0.01,inactive: 0.062,inactive: 0.014,inactive: -0.009,inactive: 0.003,inactive: 0.021,inactive: -0.051,inactive: -0.008,inactive: 0.057,inactive: -0.014,inactive: 0.04,inactive: 0.034,inactive: -0.035,inactive: -0.01,inactive: 0.008,inactive: -0.036,inactive: -0.04,inactive: -0.007
DHX38 (UniProt Q92620),inactive: 0.004,inactive: 0.024,inactive: 0.001,inactive: 0.006,inactive: 0.004,inactive: -0.041,inactive: -0.012,inactive: -0.003,inactive: 0.006,inactive: -0.016,inactive: -0.014,inactive: 0.02,inactive: -0.001,inactive: -0.016,inactive: 0.013,inactive: 0.035,inactive: 0.106,inactive: 0.037,inactive: -0.018,inactive: -0.032
DNAH9 (UniProt Q9NYC9),inactive: -0.076,inactive: 0.005,inactive: -0.018,inactive: -0.04,inactive: -0.039,inactive: 0.017,inactive: -0.021,inactive: -0.023,inactive: -0.051,inactive: 0.016,inactive: -0.078,inactive: 0.009,inactive: -0.011,inactive: 0.032,inactive: -0.042,inactive: -0.043,inactive: 0.054,inactive: -0.006,inactive: -0.059,inactive: -0.027
DHRS3 (UniProt O75911),inactive: 0.02,inactive: -0.051,inactive: -0.024,inactive: -0.044,inactive: -0.025,inactive: 0.059,inactive: -0.043,inactive: 0.035,inactive: -0.032,inactive: 0.011,inactive: 0.007,inactive: 0.005,active: 0.23,inactive: -0.028,inactive: 0.024,inactive: -0.031,inactive: 0.06,inactive: 0.019,inactive: -0.078,inactive: -0.044
DHRS7B (UniProt Q6IAN0),inactive: -0.087,inactive: 0.009,inactive: -0.072,inactive: -0.041,inactive: 0.012,inactive: 0.161,inactive: -0.027,inactive: 0,inactive: 0.019,inactive: 0.09,inactive: -0.012,inactive: -0.01,inactive: 0.116,inactive: -0.006,inactive: 0.039,inactive: 0.018,inactive: 0.065,inactive: 0.026,inactive: 0.005,inactive: -0.026
DGAT1 (UniProt O75907),inactive: -0.034,inactive: 0.013,inactive: -0.042,inactive: -0.085,inactive: 0.007,inactive: 0.122,inactive: 0.012,inactive: -0.005,inactive: -0.058,inactive: 0.071,inactive: -0.016,inactive: 0.006,inactive: 0.13,inactive: -0.207,inactive: -0.064,inactive: -0.125,inactive: -0.011,inactive: 0.034,inactive: -0.07,inactive: -0.01
DNM1L isoform 2 (UniProt O00429),inactive: 0.128,inactive: 0.001,inactive: 0.11,inactive: 0.029,inactive: -0.03,inactive: -0.015,inactive: 0.052,inactive: 0.026,inactive: 0.077,inactive: -0.016,inactive: -0.16,inactive: 0.028,inactive: 0.053,inactive: -0.074,inactive: 0.02,inactive: -0.131,inactive: -0.069,inactive: 0.007,inactive: 0.066,inactive: -0.073
DNMT1 isoform 2 (UniProt P26358),inactive: 0.007,inactive: 0.012,inactive: 0.021,inactive: 0.017,inactive: 0.007,inactive: -0.012,inactive: 0.024,inactive: 0.001,inactive: 0.026,inactive: -0.044,inactive: -0.004,inactive: -0.02,inactive: 0.012,inactive: -0.026,inactive: 0.013,inactive: 0.042,inactive: 0.024,inactive: -0.019,inactive: -0.007,inactive: 0.041
DNAH10 (UniProt Q8IVF4),inactive: -0.075,inactive: 0.066,inactive: -0.136,active: -0.553,inactive: 0.044,inactive: 0.172,inactive: -0.024,inactive: 0.076,inactive: -0.08,inactive: 0.196,inactive: 0.017,inactive: 0.014,inactive: -0.026,inactive: -0.024,inactive: -0.026,inactive: -0.251,inactive: 0.025,inactive: 0.012,inactive: -0.017,inactive: -0.072
DMAC2L (UniProt Q99766),inactive: -0.021,inactive: -0.036,inactive: 0.012,inactive: -0.048,inactive: -0.037,inactive: 0.047,inactive: 0.087,inactive: 0.002,inactive: 0.009,inactive: 0.1,inactive: -0.021,inactive: 0.001,inactive: 0.059,inactive: -0.04,inactive: -0.009,inactive: 0.012,inactive: -0.017,inactive: -0.032,inactive: -0.006,inactive: 0.111
DHRS2 (UniProt Q13268),inactive: 0.001,inactive: 0.015,inactive: 0.039,inactive: 0.082,inactive: -0.001,inactive: -0.02,inactive: -0.008,inactive: -0.015,inactive: -0.102,inactive: -0.123,inactive: -0.007,inactive: 0.006,inactive: 0.011,inactive: -0.055,inactive: 0.037,inactive: 0.051,inactive: 0.081,inactive: -0.025,inactive: -0.043,inactive: 0.028

# 3 entries from above, set out differently:
Target | log2 fold change (lapatinib) | log2 fold change (pictilisib) | log2 fold change (crizotinib) | log2 fold change [1] | log2 fold change (duvelisib) | log2 fold change (gandotinib) | log2 fold change (tozasertib) | log2 fold change (doramapimod) | log2 fold change (bafetinib) | log2 fold change [2] | log2 fold change (nilotinib) | log2 fold change [3] | log2 fold change (dasatinib) | log2 fold change [4] | log2 fold change [5] | log2 fold change (quisinostat) | log2 fold change (tipifarnib) | log2 fold change [6] | log2 fold change [7] | log2 fold change [8]
DHX9 (UniProt Q08211) | inactive: -0.009 | inactive: 0 | inactive: -0.033 | inactive: 0.031 | inactive: 0.023 | inactive: -0.046 | inactive: -0.028 | inactive: 0.015 | inactive: -0.023 | inactive: 0.005 | inactive: -0.015 | inactive: 0.014 | inactive: 0.008 | inactive: -0.014 | inactive: 0.02 | inactive: -0.057 | inactive: 0.01 | inactive: 0.017 | inactive: -0.005 | inactive: -0.025
DNAJA2 (UniProt O60884) | inactive: -0.027 | inactive: 0.056 | inactive: 0 | inactive: 0.045 | inactive: 0.018 | inactive: -0.018 | inactive: -0.009 | inactive: 0.035 | inactive: -0.006 | inactive: 0.018 | inactive: -0.002 | inactive: 0.051 | inactive: 0.009 | inactive: 0.028 | inactive: -0.007 | inactive: -0.001 | inactive: -0.038 | inactive: -0.008 | inactive: -0.027 | inactive: 0.025
DNAJB4 (UniProt Q9UDY4) | inactive: 0.002 | inactive: 0.01 | inactive: -0.075 | inactive: -0.011 | inactive: 0 | inactive: 0.059 | inactive: 0.042 | inactive: 0.069 | inactive: -0.044 | inactive: 0.029 | inactive: 0.002 | inactive: -0.009 | inactive: -0.019 | inactive: -0.022 | inactive: 0.009 | inactive: -0.02 | inactive: -0.008 | inactive: 0.005 | inactive: 0.018 | inactive: 0.039
